The values below come from the supplement of paper PMC10849652.

Chains of the proteins cited; added tags and fusions are not shown. Lines headed by an entry give the natural chain unless they say otherwise; changes in a name come on top.
UniProt P13807: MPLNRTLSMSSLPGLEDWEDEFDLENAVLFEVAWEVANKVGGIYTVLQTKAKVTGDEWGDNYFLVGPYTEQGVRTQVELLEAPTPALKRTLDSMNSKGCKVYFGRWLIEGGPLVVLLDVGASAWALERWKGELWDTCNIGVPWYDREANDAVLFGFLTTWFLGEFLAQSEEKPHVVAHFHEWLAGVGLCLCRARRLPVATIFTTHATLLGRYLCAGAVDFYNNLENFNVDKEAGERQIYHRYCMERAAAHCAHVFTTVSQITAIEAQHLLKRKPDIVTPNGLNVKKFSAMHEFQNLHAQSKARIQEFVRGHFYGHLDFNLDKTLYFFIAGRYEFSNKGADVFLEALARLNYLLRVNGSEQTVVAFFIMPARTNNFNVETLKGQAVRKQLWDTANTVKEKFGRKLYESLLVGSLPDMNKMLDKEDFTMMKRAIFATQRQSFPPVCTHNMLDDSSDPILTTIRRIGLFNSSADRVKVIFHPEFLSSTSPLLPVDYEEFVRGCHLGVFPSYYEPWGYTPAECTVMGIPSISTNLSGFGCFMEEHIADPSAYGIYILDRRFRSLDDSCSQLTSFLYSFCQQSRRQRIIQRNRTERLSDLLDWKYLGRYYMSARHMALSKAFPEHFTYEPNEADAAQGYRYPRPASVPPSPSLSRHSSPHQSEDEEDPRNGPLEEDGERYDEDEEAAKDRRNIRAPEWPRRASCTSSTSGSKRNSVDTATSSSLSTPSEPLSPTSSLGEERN
UniProt P46439: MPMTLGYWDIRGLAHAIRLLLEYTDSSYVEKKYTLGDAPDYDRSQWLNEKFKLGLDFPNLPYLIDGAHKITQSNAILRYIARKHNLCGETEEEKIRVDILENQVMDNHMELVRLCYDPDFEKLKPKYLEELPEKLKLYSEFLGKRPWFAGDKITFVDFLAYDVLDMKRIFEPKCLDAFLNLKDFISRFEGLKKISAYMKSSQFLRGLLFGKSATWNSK
UniProt Q9BSE4: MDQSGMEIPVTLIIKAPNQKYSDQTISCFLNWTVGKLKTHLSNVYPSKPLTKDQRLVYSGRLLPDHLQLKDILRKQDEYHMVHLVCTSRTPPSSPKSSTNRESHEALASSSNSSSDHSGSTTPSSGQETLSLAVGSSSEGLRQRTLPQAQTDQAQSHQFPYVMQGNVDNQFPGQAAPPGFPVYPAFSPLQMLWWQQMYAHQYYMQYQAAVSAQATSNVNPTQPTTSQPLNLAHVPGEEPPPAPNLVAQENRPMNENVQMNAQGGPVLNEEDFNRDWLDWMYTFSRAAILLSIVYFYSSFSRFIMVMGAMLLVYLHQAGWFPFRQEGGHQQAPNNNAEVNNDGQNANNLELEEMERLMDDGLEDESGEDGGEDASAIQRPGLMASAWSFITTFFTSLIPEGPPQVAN
UniProt Q92664: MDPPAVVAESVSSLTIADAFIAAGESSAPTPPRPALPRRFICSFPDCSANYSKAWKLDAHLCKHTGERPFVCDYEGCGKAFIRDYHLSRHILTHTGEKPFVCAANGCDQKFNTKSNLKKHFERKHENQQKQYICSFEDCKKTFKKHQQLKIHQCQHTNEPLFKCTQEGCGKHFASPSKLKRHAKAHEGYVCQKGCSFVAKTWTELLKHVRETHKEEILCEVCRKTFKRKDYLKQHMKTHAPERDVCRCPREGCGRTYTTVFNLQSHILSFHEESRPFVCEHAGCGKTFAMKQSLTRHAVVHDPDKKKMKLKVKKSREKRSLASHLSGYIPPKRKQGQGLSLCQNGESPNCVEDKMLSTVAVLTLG
UniProt O75367, whole entry, looked up: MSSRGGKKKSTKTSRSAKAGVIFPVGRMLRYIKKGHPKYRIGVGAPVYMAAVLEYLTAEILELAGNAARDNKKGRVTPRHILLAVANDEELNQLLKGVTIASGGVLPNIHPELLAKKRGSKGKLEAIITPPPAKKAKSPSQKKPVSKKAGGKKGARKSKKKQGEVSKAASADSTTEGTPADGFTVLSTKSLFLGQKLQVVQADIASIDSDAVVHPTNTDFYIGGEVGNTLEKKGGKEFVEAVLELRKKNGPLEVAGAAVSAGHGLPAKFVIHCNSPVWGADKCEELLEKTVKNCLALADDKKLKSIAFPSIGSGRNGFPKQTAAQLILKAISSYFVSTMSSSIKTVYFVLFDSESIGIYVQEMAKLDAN
UniProt Q9ULT8: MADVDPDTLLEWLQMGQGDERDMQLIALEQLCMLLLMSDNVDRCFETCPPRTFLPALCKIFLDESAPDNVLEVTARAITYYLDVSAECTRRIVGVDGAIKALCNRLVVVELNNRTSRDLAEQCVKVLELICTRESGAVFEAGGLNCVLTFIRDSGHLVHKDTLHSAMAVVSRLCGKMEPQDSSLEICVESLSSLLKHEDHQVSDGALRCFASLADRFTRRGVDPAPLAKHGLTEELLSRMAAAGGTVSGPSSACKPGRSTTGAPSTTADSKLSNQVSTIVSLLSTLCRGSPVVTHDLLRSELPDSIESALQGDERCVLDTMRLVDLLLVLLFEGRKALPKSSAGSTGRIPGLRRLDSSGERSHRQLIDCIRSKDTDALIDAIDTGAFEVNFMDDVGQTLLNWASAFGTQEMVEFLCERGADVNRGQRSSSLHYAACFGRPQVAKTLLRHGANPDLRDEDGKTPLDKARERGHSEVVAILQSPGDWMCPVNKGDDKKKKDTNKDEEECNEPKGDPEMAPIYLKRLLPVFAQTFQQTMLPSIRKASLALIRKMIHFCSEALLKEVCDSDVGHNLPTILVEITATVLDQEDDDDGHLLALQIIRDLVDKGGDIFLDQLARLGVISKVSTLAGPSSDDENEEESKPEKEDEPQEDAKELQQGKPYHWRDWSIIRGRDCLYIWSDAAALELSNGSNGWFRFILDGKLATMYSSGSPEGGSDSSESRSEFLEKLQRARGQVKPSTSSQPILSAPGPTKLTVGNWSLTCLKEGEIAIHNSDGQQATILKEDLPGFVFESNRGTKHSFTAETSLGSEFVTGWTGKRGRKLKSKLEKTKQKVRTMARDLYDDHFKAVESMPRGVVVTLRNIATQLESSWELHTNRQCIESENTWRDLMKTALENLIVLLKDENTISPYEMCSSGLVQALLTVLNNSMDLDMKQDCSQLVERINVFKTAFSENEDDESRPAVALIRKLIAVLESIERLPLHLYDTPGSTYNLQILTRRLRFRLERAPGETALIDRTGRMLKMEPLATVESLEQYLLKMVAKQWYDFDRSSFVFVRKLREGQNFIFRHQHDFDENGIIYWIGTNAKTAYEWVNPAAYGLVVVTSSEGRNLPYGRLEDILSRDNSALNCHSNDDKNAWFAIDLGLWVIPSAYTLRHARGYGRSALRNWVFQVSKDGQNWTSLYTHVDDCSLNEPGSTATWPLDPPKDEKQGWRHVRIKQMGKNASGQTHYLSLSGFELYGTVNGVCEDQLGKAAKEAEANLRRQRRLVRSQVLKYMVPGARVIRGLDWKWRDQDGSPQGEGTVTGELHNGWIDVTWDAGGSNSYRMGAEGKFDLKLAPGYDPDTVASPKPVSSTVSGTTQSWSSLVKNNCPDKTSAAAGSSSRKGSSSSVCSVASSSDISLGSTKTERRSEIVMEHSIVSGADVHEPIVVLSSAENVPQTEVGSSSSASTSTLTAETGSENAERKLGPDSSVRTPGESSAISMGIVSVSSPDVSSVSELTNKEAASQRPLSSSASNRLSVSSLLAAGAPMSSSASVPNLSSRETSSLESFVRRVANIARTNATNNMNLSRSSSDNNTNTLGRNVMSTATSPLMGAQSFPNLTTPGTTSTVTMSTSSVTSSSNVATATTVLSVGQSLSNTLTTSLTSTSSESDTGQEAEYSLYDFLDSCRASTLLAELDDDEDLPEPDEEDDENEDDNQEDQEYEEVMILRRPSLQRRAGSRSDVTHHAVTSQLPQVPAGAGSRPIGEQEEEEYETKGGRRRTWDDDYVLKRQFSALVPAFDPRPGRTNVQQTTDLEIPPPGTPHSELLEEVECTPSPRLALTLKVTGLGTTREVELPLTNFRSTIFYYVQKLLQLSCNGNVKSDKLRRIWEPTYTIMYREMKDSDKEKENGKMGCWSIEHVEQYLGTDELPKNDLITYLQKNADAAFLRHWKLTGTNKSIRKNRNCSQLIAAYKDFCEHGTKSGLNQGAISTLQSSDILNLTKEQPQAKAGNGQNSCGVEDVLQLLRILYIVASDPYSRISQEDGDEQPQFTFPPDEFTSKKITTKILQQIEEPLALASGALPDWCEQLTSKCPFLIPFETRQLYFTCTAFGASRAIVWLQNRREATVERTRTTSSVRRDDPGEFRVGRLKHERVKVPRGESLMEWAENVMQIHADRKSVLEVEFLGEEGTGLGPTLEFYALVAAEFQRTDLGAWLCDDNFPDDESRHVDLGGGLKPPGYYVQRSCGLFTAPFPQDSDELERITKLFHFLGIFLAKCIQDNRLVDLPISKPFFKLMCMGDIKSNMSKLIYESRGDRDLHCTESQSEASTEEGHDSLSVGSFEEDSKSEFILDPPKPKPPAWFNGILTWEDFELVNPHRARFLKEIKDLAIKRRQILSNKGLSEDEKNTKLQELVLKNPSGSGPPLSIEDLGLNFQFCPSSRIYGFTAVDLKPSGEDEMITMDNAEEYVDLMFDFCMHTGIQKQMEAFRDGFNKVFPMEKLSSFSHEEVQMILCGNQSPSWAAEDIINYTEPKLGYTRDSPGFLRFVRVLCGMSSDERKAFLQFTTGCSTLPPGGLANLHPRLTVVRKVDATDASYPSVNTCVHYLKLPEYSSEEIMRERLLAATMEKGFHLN

The list shows a part of the results. Residues, ends and D or L forms follow the SMILES beside them. *: point of attachment. Cbz = O=C(OCc1ccccc1)*

Common to all, as to experiment: log2 fold change, soluble protein after heating vs DMSO (PISA); higher = thermal stabilisation; K562 cells, 10 uM, 30 min; active = over 0.2 and 3.5 SD of the protein, either way, in both replicates (recomputed)
Compound in test [1]: C1COCCN1CCN2C3=CC=CC=C3N=C2NC(=O)C4=CC(=CC=C4)[N+](=O)[O-] [IRAK-1-4 Inhibitor I]
In outline: (§1)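 K562 cells at 2×10^6 cells/mL were given 10 μM compound for 30 min. Aliquots then went through 3 min of heating across 48°C-58°C, were pooled, and were extracted in PBS with 0.5% NP-40 at 4°C, and the supernatant after 21,000xg for 90 min was quantified by TMTpro 16plex LC-MS/MS with channel sums equalised. Thermal stability relative to control samples, from duplicates, is given as log2 fold change.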

Compound in test [2]: C=CC(=O)N1CCC[C@@H](n2nc(-c3ccc(Oc4ccccc4)cc3)c3c(N)ncnc32)C1 [ibrutinib]
In outline:
as §1

Compound in test [3]: CC(=O)c1cnc2ccc(-c3cc(Cl)c(O)c(Cl)c3)nc2c1N[C@H]1CC[C@H](CN(C)C)CC1
The gist of the method:
as §1

Compound in test [4]: CC(C)(C)Cn1c(N)nc2ccc(-c3[nH]c(C(C)(C)C)nc3-c3ccc(F)cc3)nc21 [ralimetinib]
In outline:
as §1

Compound in test [5]: CC(C)(O)CC(=O)NCCn1ccc2ncnc(Nc3ccc(Oc4cccc(C(F)(F)F)c4)c(Cl)c3)c21
In outline:
as §1

Compound in test [6]: CC(C)C1=C2N=C(C=C(N2N=C1)NCC3=CC=CC=C3)NCCCCCCN
The gist of the method: as §1

Compound in test [7]: CC(C)C[C@@H](C=O)NC(=O)[C@H](CC(C)C)NC(=O)[C@H](CC(C)C)NC(=O)OCc1ccccc1
In outline:
as §1

Compound in test [8]: CC(C)N(C[C@H]1O[C@@H](n2cnc3c(N)ncnc32)[C@H](O)[C@@H]1O)[C@H]1C[C@@H](CCc2nc3cc(C(C)(C)C)ccc3[nH]2)C1 [pinometostat]
The gist of the method: as §1

Compound in test [9]: CC1=C(C2=C(C=C1)C(=O)C3=CC=CC=C3N2CCCN)C
The gist of the method:
as §1

Compound in test [10]: CC1=C(C=C(C=C1)NC(=O)C2=CC(=CC=C2)C(C)(C)C#N)NC3=CC4=C(C=C3)N=CN(C4=O)C
The gist of the method: as §1

Compound in test [11]: CC1=C(C=C(C=C1)NC(=O)C2=CC(=CC=C2)N(C)C)NC(=O)C3=CC=C(C=C3)O
In outline: as §1

Compound in test [12]: CC1=CC=C(C=C1)SC2=C3C=C(SC3=CN=C2)C(=O)N
In outline: as §1

Compound in test [13]: CC1=NC(=CC=C1)C2=C(N=C(N2)C(C)(C)C)C3=CC4=NC=CN=C4C=C3
The gist of the method:
as §1

Compound in test [14]: CCCCN(Cc1ccc(C(=O)NO)cc1)C(=O)Nc1ccccc1 [Nexturastat A]
The gist of the method: as §1

Compound in test [15]: CCCS(=O)(=O)Nc1ccc(F)c(C(=O)c2c[nH]c3ncc(-c4ccc(Cl)cc4)cc23)c1F [vemurafenib]
The gist of the method:
as §1

Compound in test [16]: CCCS(=O)(=O)Nc1ccc(F)c(C(=O)c2c[nH]c3ncc(Cl)cc23)c1F
In outline: as §1

Compound in test [17]: CCCc1cc(C)[nH]c(=O)c1CNC(=O)c1cc(-c2ccnc(N3CCN(C)CC3)c2)cc2c1cnn2C(C)C
In outline:
as §1

Compound in test [18]: CCN(CC)Cc1ccc2cc(COC(=O)Nc3ccc(C(=O)NO)cc3)ccc2c1 [givinostat]
In outline:
as §1

Compound in test [19]: CCN(CCCOc1ccc2c(Nc3cc(CC(=O)Nc4cccc(F)c4)[nH]n3)ncnc2c1)CCOP(=O)(O)O [barasertib]
The gist of the method: as §1

Compound in test [20]: CC1=C(C(CC(=O)N1)C2=CC=C(C=C2)C(F)(F)F)C(=O)NC3=C(C=C4C(=C3)C=NN4)F
In outline:
as §1

In the case of GYS1 (UniProt P13807), the log2 fold change in [1] was inactive: -0.151; in [2], inactive: 0.009; in [3], active: -0.976; in [4], inactive: 0.095; in [5], inactive: 0.158; in test [6], inactive: -0.253. Further, the log2 fold change in test [7] was inactive: 0.141; in [8], inactive: 0.412; in [9] it was inactive: 0.046; in [10], inactive: 0.057; in test [11], inactive: -0.04; in [12], inactive: -0.068. Further, the log2 fold change in [13] is inactive: -0.13; in test [14], inactive: 0.515; in [15], inactive: 0.052; in test [16], inactive: -0.01; in [17], inactive: 0.091; in test [18], inactive: 0.108. Moreover, the log2 fold change in test [19] was inactive: -0.033.
As for GSTM5 (UniProt P46439), the log2 fold change in test [1] is inactive: -0.05; in [2], inactive: -0.058; in [3] it was inactive: -0.001; in test [5], inactive: -0.005; in test [6] it was inactive: -0.071; in test [8] it was inactive: -0.028. The log2 fold change is inactive: 0.177 in test [20]; inactive: 0.241 in [9]; inactive: 0.283 in [10]; inactive: -0.055 in [12]; inactive: 0.062 in [13]; inactive: -0.232 in test [14]. In addition, the log2 fold change in test [15] was inactive: -0.044; in [16], inactive: -0.131; in test [17] it was inactive: -0.126; in [18] it was inactive: -0.257; in test [19], inactive: 0.071.
In the case of HERPUD2 (UniProt Q9BSE4), the log2 fold change in test [1] was inactive: 0.107; in [2] it was inactive: -0.071; in test [3], inactive: -0.109; in test [4], inactive: 0.024; in test [6] it was inactive: 0.021; in test [7], inactive: 0.254. Also, the log2 fold change in test [8] was inactive: -0.037; in [11], inactive: -0.035; in [13], inactive: 0.065; in test [15], inactive: 0.1; in [18] it was inactive: -0.04; in test [19], inactive: -0.054.
On to GTF3A (UniProt Q92664), for which the log2 fold change in test [1] is inactive: 0.034; in test [2], inactive: -0.013; in test [3], inactive: 0.065; in [5] it was inactive: -0.084; in test [6], inactive: -0.036; in test [8] it was inactive: 0.004. In addition, the log2 fold change in [9] is inactive: 0.107; in test [10], inactive: 0.074; in test [12] it was inactive: 0.09; in [13], inactive: 0.125; in [14] it was inactive: -0.054; in [15] it was inactive: -0.075. Moreover, the log2 fold change is inactive: 0.078 in [16], inactive: -0.035 in test [17], inactive: -0.048 in test [18] and inactive: -0.053 in test [19].
With H2AFY (UniProt O75367), the log2 fold change in test [1] was inactive: -0.181; in test [2] it was inactive: -0.003; in test [4], inactive: 0.097; in test [5] it was inactive: -0.148; in [6], inactive: -0.019; in test [7] it was inactive: 0.086. Also, the log2 fold change was inactive: 0.196 in [8]; inactive: -0.045 in test [20]; inactive: 0.211 in test [9]; inactive: 0.064 in test [11]; inactive: -0.188 in test [12]; inactive: -0.099 in test [13]. For the same target, the log2 fold change in test [14] was inactive: 0.721; in test [16], inactive: 0.393; in test [17] it was inactive: 0.61; in test [18] it was inactive: 0.347; in test [19], inactive: -0.099.
Take HECTD1 (UniProt Q9ULT8): the log2 fold change in [1] was inactive: -0.076; in test [2] it was inactive: -0.027; in test [3], inactive: 0.001; in test [4] it was inactive: 0.054; in test [5], inactive: -0.048; in test [6], inactive: -0.091. In addition, the log2 fold change in test [7] is inactive: 0.141; in [8], inactive: 0.079; in test [9], inactive: -0.158; in test [10], inactive: 0.04; in test [11], inactive: -0.068; in test [12] it was inactive: 0.144. Also, the log2 fold change in test [13] was inactive: -0.023; in test [14] it was active: 0.273; in [15] it was inactive: -0.04; in [16], inactive: 0.126; in [17], inactive: 0.054; in [18], inactive: 0.038. Further, in test [19], the log2 fold change was inactive: 0.048.
